In the supplement of paper PMC10849652:
The other results are listed elsewhere or left out.

Amino acid sequences for entries named in this document (tags omitted). A change or cut given only in a name is not applied to a line headed by its entry.
UniProt Q8TCT9: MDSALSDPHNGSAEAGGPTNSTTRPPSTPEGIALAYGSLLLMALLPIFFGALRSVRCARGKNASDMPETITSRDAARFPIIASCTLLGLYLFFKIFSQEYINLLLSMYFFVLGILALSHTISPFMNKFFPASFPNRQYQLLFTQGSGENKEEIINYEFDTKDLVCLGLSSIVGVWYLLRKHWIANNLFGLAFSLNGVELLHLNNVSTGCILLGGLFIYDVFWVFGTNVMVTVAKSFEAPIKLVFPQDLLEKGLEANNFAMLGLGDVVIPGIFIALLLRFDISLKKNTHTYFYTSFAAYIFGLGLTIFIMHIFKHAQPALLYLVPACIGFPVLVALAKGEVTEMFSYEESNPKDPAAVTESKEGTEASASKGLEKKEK
UniProt Q6NT76: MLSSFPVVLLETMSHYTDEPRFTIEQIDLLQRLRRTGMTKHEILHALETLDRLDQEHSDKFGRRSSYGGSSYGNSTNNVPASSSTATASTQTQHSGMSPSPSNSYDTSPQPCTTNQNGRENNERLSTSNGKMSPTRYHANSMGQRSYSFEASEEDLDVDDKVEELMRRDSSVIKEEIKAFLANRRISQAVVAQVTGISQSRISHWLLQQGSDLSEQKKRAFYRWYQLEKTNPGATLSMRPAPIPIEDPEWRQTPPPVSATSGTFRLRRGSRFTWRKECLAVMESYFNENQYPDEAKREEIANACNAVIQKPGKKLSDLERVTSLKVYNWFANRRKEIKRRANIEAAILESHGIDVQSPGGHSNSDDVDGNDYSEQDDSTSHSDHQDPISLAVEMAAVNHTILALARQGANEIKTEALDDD
UniProt Q8NBQ5: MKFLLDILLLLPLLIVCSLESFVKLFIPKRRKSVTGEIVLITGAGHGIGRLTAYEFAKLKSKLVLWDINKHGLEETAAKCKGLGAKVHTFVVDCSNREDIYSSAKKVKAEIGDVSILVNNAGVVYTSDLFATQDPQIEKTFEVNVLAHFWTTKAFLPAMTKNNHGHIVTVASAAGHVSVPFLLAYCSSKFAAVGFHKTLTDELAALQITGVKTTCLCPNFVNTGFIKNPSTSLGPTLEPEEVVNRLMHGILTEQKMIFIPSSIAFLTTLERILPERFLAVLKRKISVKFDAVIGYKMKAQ
UniProt P54652, whole entry, looked up: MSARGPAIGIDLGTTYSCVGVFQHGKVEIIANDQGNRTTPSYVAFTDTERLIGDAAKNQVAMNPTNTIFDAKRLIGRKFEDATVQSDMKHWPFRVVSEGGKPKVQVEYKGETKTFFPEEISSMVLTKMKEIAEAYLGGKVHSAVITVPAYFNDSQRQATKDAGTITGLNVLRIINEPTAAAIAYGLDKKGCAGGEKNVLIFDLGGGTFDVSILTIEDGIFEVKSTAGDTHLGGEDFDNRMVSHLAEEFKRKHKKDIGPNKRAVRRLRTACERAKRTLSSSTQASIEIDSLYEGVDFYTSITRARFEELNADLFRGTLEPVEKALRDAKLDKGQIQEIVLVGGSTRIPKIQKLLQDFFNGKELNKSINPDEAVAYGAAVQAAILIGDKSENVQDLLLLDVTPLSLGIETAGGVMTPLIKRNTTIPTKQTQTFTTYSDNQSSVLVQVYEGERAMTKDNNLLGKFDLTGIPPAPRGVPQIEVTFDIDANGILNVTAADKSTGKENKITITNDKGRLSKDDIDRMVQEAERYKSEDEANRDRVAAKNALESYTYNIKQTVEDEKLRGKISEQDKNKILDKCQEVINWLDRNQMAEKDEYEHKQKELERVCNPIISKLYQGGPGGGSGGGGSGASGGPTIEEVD
UniProt Q00839, whole entry, looked up: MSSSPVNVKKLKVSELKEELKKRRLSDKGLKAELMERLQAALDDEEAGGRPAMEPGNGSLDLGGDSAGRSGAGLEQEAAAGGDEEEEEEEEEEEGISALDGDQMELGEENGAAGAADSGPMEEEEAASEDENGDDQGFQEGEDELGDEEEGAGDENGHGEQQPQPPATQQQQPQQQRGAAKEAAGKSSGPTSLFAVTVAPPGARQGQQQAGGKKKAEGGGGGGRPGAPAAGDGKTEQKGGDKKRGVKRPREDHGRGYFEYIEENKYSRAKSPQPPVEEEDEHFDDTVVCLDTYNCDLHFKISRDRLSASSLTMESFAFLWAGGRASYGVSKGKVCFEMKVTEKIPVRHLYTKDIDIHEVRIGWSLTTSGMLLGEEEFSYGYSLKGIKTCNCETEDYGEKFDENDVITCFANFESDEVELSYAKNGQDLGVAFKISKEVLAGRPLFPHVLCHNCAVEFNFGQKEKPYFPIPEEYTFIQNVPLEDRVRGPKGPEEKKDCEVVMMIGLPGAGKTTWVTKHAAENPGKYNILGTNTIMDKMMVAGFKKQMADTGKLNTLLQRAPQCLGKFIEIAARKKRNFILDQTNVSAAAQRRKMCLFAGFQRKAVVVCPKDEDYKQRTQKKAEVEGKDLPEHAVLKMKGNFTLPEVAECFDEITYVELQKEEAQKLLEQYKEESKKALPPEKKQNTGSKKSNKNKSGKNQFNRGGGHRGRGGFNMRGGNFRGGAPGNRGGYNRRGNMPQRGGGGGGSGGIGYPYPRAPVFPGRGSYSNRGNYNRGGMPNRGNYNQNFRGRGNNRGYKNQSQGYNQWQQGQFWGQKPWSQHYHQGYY
UniProt Q6AI08: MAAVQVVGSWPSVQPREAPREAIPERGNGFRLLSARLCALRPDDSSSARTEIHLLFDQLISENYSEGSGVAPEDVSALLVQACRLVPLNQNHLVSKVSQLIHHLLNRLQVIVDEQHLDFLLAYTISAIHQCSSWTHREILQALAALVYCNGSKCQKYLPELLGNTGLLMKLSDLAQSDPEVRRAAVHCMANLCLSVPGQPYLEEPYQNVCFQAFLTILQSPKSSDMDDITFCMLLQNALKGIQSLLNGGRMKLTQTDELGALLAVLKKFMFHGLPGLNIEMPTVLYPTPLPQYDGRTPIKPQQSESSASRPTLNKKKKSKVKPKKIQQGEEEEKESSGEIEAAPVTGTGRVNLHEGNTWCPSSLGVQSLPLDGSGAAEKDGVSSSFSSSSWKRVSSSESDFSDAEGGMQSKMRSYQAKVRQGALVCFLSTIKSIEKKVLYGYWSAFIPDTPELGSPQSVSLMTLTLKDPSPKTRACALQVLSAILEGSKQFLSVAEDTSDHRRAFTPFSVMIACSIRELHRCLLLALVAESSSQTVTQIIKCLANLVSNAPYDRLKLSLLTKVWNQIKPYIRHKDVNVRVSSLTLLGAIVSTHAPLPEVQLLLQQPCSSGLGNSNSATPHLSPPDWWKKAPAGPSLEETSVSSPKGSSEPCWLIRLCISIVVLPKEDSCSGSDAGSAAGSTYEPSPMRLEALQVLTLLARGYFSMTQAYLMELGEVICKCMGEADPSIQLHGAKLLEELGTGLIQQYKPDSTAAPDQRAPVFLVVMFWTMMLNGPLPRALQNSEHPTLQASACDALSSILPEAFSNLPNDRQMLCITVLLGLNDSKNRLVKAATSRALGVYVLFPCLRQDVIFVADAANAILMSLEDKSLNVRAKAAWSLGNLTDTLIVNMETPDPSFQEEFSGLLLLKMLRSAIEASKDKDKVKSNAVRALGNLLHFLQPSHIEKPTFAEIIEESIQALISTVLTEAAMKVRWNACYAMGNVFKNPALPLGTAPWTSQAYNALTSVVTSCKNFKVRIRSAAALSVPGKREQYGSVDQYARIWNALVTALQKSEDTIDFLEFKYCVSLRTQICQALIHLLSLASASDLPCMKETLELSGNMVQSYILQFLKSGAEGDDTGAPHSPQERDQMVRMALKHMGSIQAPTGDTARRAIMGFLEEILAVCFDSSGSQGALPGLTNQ
UniProt Q5GLZ8: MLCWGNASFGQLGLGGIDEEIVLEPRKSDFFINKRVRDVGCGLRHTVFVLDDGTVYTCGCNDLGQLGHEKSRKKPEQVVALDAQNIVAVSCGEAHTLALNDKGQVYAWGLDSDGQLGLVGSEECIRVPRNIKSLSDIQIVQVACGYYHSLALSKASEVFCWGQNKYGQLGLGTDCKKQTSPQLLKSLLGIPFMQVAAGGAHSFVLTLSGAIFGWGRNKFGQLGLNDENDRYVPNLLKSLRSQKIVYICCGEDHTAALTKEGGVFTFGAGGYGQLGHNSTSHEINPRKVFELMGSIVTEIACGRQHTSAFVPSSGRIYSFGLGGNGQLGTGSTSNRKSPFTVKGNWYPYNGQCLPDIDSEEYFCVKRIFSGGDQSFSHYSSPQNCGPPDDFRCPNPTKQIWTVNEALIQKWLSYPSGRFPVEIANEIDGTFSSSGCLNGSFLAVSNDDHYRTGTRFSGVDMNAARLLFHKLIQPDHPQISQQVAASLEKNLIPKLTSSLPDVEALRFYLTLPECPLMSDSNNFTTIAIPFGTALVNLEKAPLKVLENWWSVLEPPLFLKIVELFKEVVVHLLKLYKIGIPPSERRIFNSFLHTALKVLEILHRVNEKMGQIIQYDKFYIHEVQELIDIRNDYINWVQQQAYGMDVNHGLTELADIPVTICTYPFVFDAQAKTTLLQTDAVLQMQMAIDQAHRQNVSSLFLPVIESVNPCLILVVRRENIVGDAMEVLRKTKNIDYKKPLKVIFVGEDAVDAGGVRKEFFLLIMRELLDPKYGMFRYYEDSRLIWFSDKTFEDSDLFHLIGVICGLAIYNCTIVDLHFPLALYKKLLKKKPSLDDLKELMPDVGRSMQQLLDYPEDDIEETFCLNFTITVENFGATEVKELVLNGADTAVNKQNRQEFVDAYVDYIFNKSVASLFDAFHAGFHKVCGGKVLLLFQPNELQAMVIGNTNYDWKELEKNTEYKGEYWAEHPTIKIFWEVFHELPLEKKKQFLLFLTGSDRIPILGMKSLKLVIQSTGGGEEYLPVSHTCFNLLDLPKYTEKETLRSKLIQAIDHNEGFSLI
UniProt P05114: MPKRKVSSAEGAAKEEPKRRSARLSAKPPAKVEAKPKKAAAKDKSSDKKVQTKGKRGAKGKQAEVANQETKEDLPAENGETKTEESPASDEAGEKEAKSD
UniProt P51659: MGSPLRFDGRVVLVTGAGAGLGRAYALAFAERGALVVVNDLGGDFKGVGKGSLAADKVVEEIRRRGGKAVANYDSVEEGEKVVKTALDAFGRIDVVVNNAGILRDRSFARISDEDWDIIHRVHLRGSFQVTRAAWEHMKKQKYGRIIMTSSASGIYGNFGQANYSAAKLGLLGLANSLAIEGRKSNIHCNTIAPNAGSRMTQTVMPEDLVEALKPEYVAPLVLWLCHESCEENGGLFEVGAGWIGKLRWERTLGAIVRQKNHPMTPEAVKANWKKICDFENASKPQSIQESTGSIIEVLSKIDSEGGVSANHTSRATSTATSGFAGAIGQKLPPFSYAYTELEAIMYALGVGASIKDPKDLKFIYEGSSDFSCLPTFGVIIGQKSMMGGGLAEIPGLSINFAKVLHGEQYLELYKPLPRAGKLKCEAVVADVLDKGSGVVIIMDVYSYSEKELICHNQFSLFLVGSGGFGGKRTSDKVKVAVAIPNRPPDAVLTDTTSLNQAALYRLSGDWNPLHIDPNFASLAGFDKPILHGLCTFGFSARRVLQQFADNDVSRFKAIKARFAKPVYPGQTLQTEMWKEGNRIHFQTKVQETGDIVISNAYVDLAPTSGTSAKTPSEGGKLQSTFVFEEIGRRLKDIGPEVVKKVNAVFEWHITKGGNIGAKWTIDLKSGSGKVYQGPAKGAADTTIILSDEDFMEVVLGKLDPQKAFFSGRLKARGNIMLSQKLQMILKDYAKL
UniProt O15347: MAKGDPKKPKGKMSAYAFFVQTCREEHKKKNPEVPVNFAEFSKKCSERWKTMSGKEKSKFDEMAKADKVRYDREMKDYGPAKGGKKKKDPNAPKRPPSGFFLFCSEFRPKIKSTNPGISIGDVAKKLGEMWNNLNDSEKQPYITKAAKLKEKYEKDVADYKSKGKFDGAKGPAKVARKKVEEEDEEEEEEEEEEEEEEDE
UniProt P09651: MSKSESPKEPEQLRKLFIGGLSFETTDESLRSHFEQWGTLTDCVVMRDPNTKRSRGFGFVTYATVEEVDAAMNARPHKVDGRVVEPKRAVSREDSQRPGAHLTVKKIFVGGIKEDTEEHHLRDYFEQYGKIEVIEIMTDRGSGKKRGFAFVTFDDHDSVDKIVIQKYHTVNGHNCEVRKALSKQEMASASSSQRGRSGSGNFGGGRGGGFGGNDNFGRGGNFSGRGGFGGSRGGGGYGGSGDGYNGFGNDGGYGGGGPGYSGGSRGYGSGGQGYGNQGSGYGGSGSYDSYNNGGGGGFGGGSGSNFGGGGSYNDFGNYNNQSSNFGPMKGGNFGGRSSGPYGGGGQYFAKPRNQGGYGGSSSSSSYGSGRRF
UniProt Q53T59: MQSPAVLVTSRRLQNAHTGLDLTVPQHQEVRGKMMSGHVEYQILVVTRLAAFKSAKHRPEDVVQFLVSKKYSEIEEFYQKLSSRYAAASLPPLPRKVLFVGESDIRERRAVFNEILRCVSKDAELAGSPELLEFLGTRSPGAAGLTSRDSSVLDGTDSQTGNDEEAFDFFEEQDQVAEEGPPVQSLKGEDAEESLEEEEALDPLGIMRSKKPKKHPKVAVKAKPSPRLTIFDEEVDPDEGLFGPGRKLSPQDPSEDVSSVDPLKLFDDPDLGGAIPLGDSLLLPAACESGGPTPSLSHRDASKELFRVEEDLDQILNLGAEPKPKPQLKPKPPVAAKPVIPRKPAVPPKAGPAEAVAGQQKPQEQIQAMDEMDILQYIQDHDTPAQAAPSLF

Columns and labels:
Experiment in all cases: log2 fold change, soluble protein after heating vs DMSO (PISA); higher = thermal stabilisation; K562 lysate, 10 uM; active = over 0.2 and 3.5 SD of the protein, either way, in both replicates (recomputed)
erlotinib = compound: C#Cc1cccc(Nc2ncnc3cc(OCCOC)c(OCCOC)cc23)c1 [erlotinib]
Summary of the method: (§1)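 Pellets of K562 cells were dounce-homogenised in PBS pH 7.4 with 1 mM MgCl2, and the crude extract was held at 1 mg/mL protein for a 30 min treatment with 10 μM compound. Aliquots were heated for 3 min over 48°C-58°C and pooled before NP-40 was added to 0.5% at 4°C. The supernatant from 21,000xg for 90 min was quantified by TMTpro 16plex LC-MS/MS with channel sums equalised. Values are reported from duplicates as log-two fold change in thermal stability relative to solvent controls.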

[1] = compound: C/C(=N\NC(=O)C1=CC(=CC=C1)S(=O)(=O)N2CCOCC2)/C3=C(C=CC(=C3)Cl)O
Summary of the method: as §1

[2] = compound: C1=CC(=CC=C1C2=NC3=C(N2)C=C(C=C3)C(=O)N)OC4=CC=C(C=C4)Cl
Summary of the method: as §1

[3] = compound: C1=CC2=C(C=CC(=C2)/C=C\3/C(=O)NC(=NCC4=CC=CS4)S3)N=C1
Summary of the method: as §1

[4] = compound: C1=CC2=NC=CN=C2C=C1/C=C/3\C(=O)NC(=O)S3
Summary of the method: as §1

[5] = compound: C1=CC=C(C=C1)C2=NC(=C(N2)C3=CC=NC=C3)C4=CC(=C(C=C4)Cl)O
Summary of the method: as §1

[6] = compound: C1=CC=C2C(=C1)C3=NNC4=CC=CC(=C43)C2=O
Summary of the method: as §1

[7] = compound: C1CCN(C1)C(=O)NC2=CC=CC(=C2)NC3=NC=C(C(=N3)NCCC4=CN=CN4)Br
Summary of the method: as §1

[8] = compound: C1CN(CCC1(CC2=CC=C(C=C2)Cl)N)C3=NC=NC4=C3C=CN4
Summary of the method: as §1

IRAK-1-4 Inhibitor I = compound: C1COCCN1CCN2C3=CC=CC=C3N=C2NC(=O)C4=CC(=CC=C4)[N+](=O)[O-] [IRAK-1-4 Inhibitor I]
Summary of the method: as §1

Measured: log2 fold change

HM13 isoform 2 (UniProt Q8TCT9)
inactive: erlotinib -0.011 | [1] -0.013 | [2] 0.008 | [3] -0.005 | [4] 0.017 | [5] -0.004 | [6] -0.045 | [7] -0.009 | [8] 0 | IRAK-1-4 Inhibitor I 0.054

HIC2 (UniProt Q96JB3)
inactive: erlotinib 0.01 | [1] -0.005 | [2] -0.015 | [3] -0.006 | [4] 0.003 | [5] 0.026 | [6] -0.08 | [7] -0.01 | [8] 0.028 | IRAK-1-4 Inhibitor I 0.007

HNRNPUL2 (UniProt Q1KMD3)
inactive: erlotinib -0.006 | [1] -0.002 | [2] 0.02 | [3] -0.004 | [4] -0.035 | [5] -0.006 | [6] -0.014 | [7] -0.001 | [8] -0.022 | IRAK-1-4 Inhibitor I -0.003

HNRNPK isoform 2 (UniProt P61978)
inactive: erlotinib -0.016 | [1] 0.03 | [2] -0.006 | [3] -0.036 | [4] -0.021 | [5] 0.018 | [6] -0.022 | [7] -0.003 | [8] -0.013 | IRAK-1-4 Inhibitor I 0.007

HSDL1 (UniProt Q3SXM5)
inactive: erlotinib -0.017 | [1] 0.002 | [2] 0 | [3] 0.021 | [4] -0.004 | [5] -0.018 | [6] -0.016 | [7] 0.006 | [8] 0.018 | IRAK-1-4 Inhibitor I 0.036

HPS1 (UniProt Q92902)
inactive: erlotinib 0.008 | [1] -0.027 | [2] 0.089 | [3] -0.083 | [4] 0.005 | [5] -0.054 | [6] -0.043 | [7] -0.088 | [8] 0.084 | IRAK-1-4 Inhibitor I 0.016

HMBOX1 isoform 5 (UniProt Q6NT76)
inactive: erlotinib 0.045 | [1] -0.094 | [2] -0.004 | [3] 0.026 | [4] -0.037 | [5] -0.004 | [6] -0.057 | [7] -0.028 | [8] 0.004 | IRAK-1-4 Inhibitor I -0.009

HSPA6 (UniProt P17066)
inactive: erlotinib -0.005 | [1] -0.002 | [2] 0.018 | [3] -0.002 | [4] -0.013 | [5] -0.022 | [6] 0.005 | [7] -0.004 | [8] 0.008 | IRAK-1-4 Inhibitor I -0.023

HSD17B11 (UniProt Q8NBQ5)
inactive: erlotinib -0.027 | [1] -0.007 | [2] 0.016 | [3] 0.012 | [4] -0.013 | [5] 0.008 | [6] -0.002 | [7] -0.014 | [8] 0.005 | IRAK-1-4 Inhibitor I 0.099

HIST2H2AA3 (UniProt Q6FI13)
inactive: erlotinib -0.012 | [1] -0.956 | [2] 0.002 | [3] -0.054 | [4] -0.05 | [5] 0.126 | [6] 0.012 | [7] 0.083 | [8] 0.019 | IRAK-1-4 Inhibitor I -0.055

HSPA2 (UniProt P54652)
inactive: erlotinib -0.025 | [1] 0.112 | [2] 0.09 | [3] -0.037 | [4] -0.017 | [5] 0.012 | [6] -0.117 | [7] 0.022 | [8] 0.138 | IRAK-1-4 Inhibitor I 0.052

HNRNPU (UniProt Q00839)
inactive: erlotinib -0.007 | [1] 0.013 | [2] -0.036 | [3] -0.001 | [4] -0.021 | [5] 0.018 | [6] 0.043 | [7] 0.02 | [8] 0 | IRAK-1-4 Inhibitor I -0.037

HK2 (UniProt P52789)
inactive: erlotinib 0.013 | [1] 0.007 | [2] -0.045 | [3] 0.019 | [4] -0.01 | [5] 0.026 | [6] -0.027 | [7] -0.016 | [8] 0.004 | IRAK-1-4 Inhibitor I -0.002

HERC2 (UniProt O95714)
inactive: erlotinib 0.014 | [1] 0.174 | [2] 0.115 | [3] 0.007 | [4] 0.01 | [5] 0.042 | [6] -0.061 | [7] -0.016 | [8] -0.001 | IRAK-1-4 Inhibitor I -0.033

HEBP1 (UniProt Q9NRV9)
inactive: erlotinib -0.026 | [1] -0.143 | [2] 0.043 | [3] 0.035 | [4] -0.003 | [5] 0.018 | [6] 0.151 | [7] 0.013 | [8] 0.018 | IRAK-1-4 Inhibitor I 0.164

HEPH isoform 3 (UniProt Q9BQS7)
inactive: erlotinib -0.026 | [1] -0.014 | [2] 0.037 | [3] 0.005 | [4] 0.002 | [5] -0.026 | [6] 0.002 | [7] -0.067 | [8] -0.044 | IRAK-1-4 Inhibitor I 0.005

HEATR6 (UniProt Q6AI08)
inactive: erlotinib -0.033 | [1] 0.024 | [2] -0.002 | [3] 0.022 | [4] 0.085 | [5] -0.006 | [6] -0.026 | [7] -0.03 | [8] -0.007 | IRAK-1-4 Inhibitor I -0.028

HERC4 (UniProt Q5GLZ8)
inactive: erlotinib 0.002 | [1] 0.006 | [2] -0.007 | [3] 0.017 | [4] -0.029 | [5] -0.006 | [6] -0.015 | [7] -0.028 | [8] 0.024 | IRAK-1-4 Inhibitor I -0.021

Quoted from the entries so far (2 entries):
HSPA6 (UniProt P17066)
inactive: erlotinib -0.005 | [1] -0.002 | [2] 0.018 | [3] -0.002 | [4] -0.013 | [5] -0.022 | [6] 0.005 | [7] -0.004 | [8] 0.008 | IRAK-1-4 Inhibitor I -0.023

HSD17B11 (UniProt Q8NBQ5)
inactive: erlotinib -0.027 | [1] -0.007 | [2] 0.016 | [3] 0.012 | [4] -0.013 | [5] 0.008 | [6] -0.002 | [7] -0.014 | [8] 0.005 | IRAK-1-4 Inhibitor I 0.099

More records.

HIRIP3 (UniProt Q9BW71)
inactive: erlotinib -0.033 | [1] -0.004 | [2] 0.045 | [3] -0.002 | [4] -0.008 | [5] -0.003 | [6] -0.023 | [7] -0.008 | [8] -0.009 | IRAK-1-4 Inhibitor I 0.001

HSBP1 (UniProt O75506)
inactive: erlotinib 0.009 | [1] -0.167 | [2] 0.123 | [3] 0.041 | [4] -0.07 | [5] -0.181 | [6] -0.329 | [7] 0.051 | [8] -0.095 | IRAK-1-4 Inhibitor I -0.227

HMGN1 (UniProt P05114)
inactive: erlotinib -0.02 | [1] -0.026 | [2] 0.038 | [3] 0.075 | [4] 0.004 | [5] 0.024 | [6] -0.053 | [7] 0.014 | [8] 0.038 | IRAK-1-4 Inhibitor I 0.051

HSD17B7 (UniProt P56937)
inactive: erlotinib 0.006 | [1] -0.1 | [2] 0.112 | [3] 0.047 | [4] 0.013 | [5] -0.011 | [6] 0.064 | [7] -0.04 | [8] -0.151 | IRAK-1-4 Inhibitor I 0.009

HMGB1 (UniProt P09429)
inactive: erlotinib -0.024 | [1] -0.017 | [2] -0.021 | [3] -0.03 | [4] -0.001 | [5] 0.035 | [6] 0.007 | [7] 0.012 | [8] 0.001 | IRAK-1-4 Inhibitor I -0.015

HSD17B4 (UniProt P51659)
inactive: erlotinib -0.003 | [1] -0.037 | [2] 0.016 | [3] -0.008 | [4] -0.015 | [5] -0.024 | [6] -0.008 | [7] -0.016 | [8] 0.032 | IRAK-1-4 Inhibitor I 0.016

HMGB3 (UniProt O15347)
inactive: erlotinib -0.012 | [1] -0.057 | [2] 0.035 | [3] -0.016 | [4] -0.028 | [5] 0.006 | [6] 0.002 | [7] 0.024 | [8] -0.022 | IRAK-1-4 Inhibitor I 0.005

HNRNPA1 (UniProt P09651)
inactive: erlotinib 0.015 | [1] -0.033 | [2] -0.002 | [3] -0.034 | [4] 0.017 | [5] 0.009 | [6] -0.014 | [7] 0.028 | [8] 0.018 | IRAK-1-4 Inhibitor I -0.007

HMGN2 (UniProt P05204)
inactive: erlotinib -0.061 | [1] -0.044 | [2] 0.025 | [3] -0.043 | [4] -0.064 | [5] 0 | [6] 0.009 | [7] 0 | [8] 0.001 | IRAK-1-4 Inhibitor I -0.034

HSD17B8 (UniProt Q92506)
inactive: erlotinib 0.003 | [1] 0.041 | [2] -0.091 | [3] -0.099 | [4] 0.009 | [5] 0.018 | [6] 0.018 | [7] -0.011 | [8] 0.026 | IRAK-1-4 Inhibitor I 0.006

HS1BP3 (UniProt Q53T59)
inactive: erlotinib -0.019 | [1] -0.04 | [2] 0.007 | [3] -0.013 | [4] -0.027 | [5] -0.031 | [6] 0.029 | [7] -0.022 | [8] 0.01 | IRAK-1-4 Inhibitor I 0.01
